Data taken from PubChem BioAssay (NCATS).
The other results are listed elsewhere or left out. Further columns of the screen follow, without active or inactive calls. Most of these compounds were active or inconclusive in the main read-out, so they are no random draw. Potencies come from curve fits of mixed quality, noted in brackets.

Assay: qHTS for identification of novel therapeutic agents for treatment of microphthalmiaassociated transcription factor (MiT) renal cell carcinoma (RCC) (AID 1963991)
Settings: CellTiter-Glo, 48 h; for z-score: stronger effect = lower value
Outline: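 Three TFE3-fusion RCC lines (UOK109, UOK124, UOK145), 500 cells/well in complete medium, were treated with MIPE 4.0 compounds for 48 hours at 37 C. Viability was by CellTiter-Glo luminescence, normalized to DMSO (100%) and empty wells (0%); curves fitted over 11 concentrations.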

[1] = TFE3-RCC UOK109 viability, measured here: UOK109 Z-AUC
[2] = TFE3-RCC viability, measured here: UOK124 Z-AUC
[3] = TFE3-RCC viability, measured here: UOK124 cell viability
[4] = TFE3-RCC viability, measured here: UOK145 Z-AUC
[5] = TFE3-RCC viability, measured here: UOK145 cell viability

Structure (SMILES): CN[C@@H](C)C(=O)N[C@H]1CN(C(=O)CC(C)C)CC[C@H]2CC[C@@H](C(=O)NC(c3ccccc3)c3ccccc3)N2C1=O
- z-score [1]: -0.753
- z-score [2]: -1.04
- AC50 [3]: 2.96 µM [falling, full curve]
- z-score [4]: 0.0466
- AC50 [5]: 5.26 µM [falling, full curve]

Structure (SMILES): CO[C@H]1C[C@@H]2CC[C@@H](C)[C@@](O)(O2)C(=O)C(=O)N2CCCC[C@@H]2C(=O)O[C@H]([C@H](C)C[C@@H]2CC[C@H](OCCO)[C@H](OC)C2)CC(=O)[C@H](C)C=C(C)[C@@H](O)[C@@H](OC)C(=O)[C@H](C)C[C@H](C)C=CC=CC=C1C
- z-score [1]: -0.65
- z-score [2]: -0.857
- AC50 [3]: 3.32 µM [falling, partial curve]
- z-score [4]: -1.32
- AC50 [5]: 3.72 µM [falling, full curve]

Structure (SMILES): CN(C)C(=O)[C@H](O)[C@H](Cc1ccccc1)NC(=O)c1cc2cc(Cl)ccc2[nH]1
- z-score [1]: -0.431
- z-score [2]: -0.175
- AC50 [3]: 2.35 µM [falling, partial curve, poor fit]
- z-score [4]: 0.371
- AC50 [5]: 14.8 µM [falling, partial curve]

Structure (SMILES): CC1=C(CC(=O)O)c2cc(F)ccc2C1=Cc1ccc(S(C)=O)cc1 (stereo not given)
- z-score [1]: 0.815
- z-score [2]: 0.444
- AC50 [3]: 37.2 µM [falling, single point]
- z-score [4]: 0.401
- AC50 [5]: 26.4 µM [falling, single point]

Structure (SMILES): Cc1c(O)cccc1C(=O)N[C@@H](CSc1ccccc1)[C@H](O)CN1C[C@H]2CCCC[C@@H]2C[C@@H]1C(=O)NC(C)(C)C
- z-score [1]: 0.0757
- z-score [2]: -0.0375
- AC50 [3]: 29.6 µM [falling, partial curve]
- z-score [4]: 1.18
- AC50 [5]: 33.2 µM [falling, single point]

Structure (SMILES): O=C(C=Cc1cccnc1)NCCCCC1CCN(C(=O)c2ccccc2)CC1
- z-score [1]: 0.841
- z-score [2]: -2.88
- AC50 [3]: 0.0526 µM [falling, full curve]
- z-score [4]: -3.25
- AC50 [5]: 0.0166 µM [falling, full curve, poor fit]

Structure (SMILES): CC[C@]12C=CCN3CC[C@@]4(c5cc([C@@]6(C(=O)OC)C[C@H]7C[C@@H](C(C)(F)F)CN(Cc8c6[nH]c6ccccc86)C7)c(OC)cc5N(C)[C@H]4[C@@](O)(C(=O)OC)[C@H]1OC(C)=O)[C@@H]32
- z-score [1]: -0.669
- z-score [2]: -1.71
- AC50 [3]: 0.0372 µM [falling, full curve]
- z-score [4]: -1.71
- AC50 [5]: 0.0833 µM [falling, full curve]

Structure (SMILES): CN(C)C(=O)COC(=O)Cc1ccc(OC(=O)c2ccc(N=C(N)N)cc2)cc1
- z-score [1]: -0.36
- z-score [2]: -2.53
- AC50 [3]: 37.2 µM [falling, partial curve, poor fit]
- z-score [4]: 0.196
- AC50 [5]: 20.9 µM [falling, partial curve]

Structure (SMILES): Cc1[nH]c(C=C2C(=O)Nc3ccc(S(=O)(=O)N(C)c4cccc(Cl)c4)cc32)c(C)c1C(=O)N1CCN(C)CC1
- z-score [1]: 0.639
- z-score [2]: -0.152
- AC50 [3]: 16.6 µM [falling, partial curve]
- z-score [4]: 0.432
- AC50 [5]: 26.4 µM [falling, single point]

Structure (SMILES): Oc1ccc(C=Cc2cc(O)cc(O)c2)cc1
- z-score [1]: 0.83
- z-score [2]: 0.142
- AC50 [3]: 33.2 µM [falling, single point]
- z-score [4]: 0.58
- AC50 [5]: 33.2 µM [falling, single point]

Structure (SMILES): O=C(C=Cc1cccc(S(=O)(=O)Nc2ccccc2)c1)NO
- z-score [1]: -0.77
- z-score [2]: -1.14
- AC50 [3]: 9.59 µM [falling, full curve]
- z-score [4]: -0.852
- AC50 [5]: 9.59 µM [falling, full curve]

Structure (SMILES): CCOC(=O)N1CCN([N+]([O-])=NOc2ccc([N+](=O)[O-])cc2[N+](=O)[O-])CC1
- z-score [1]: -0.237
- z-score [2]: -0.465
- AC50 [3]: 14.8 µM [falling, partial curve]
- z-score [4]: -0.337
- AC50 [5]: 8.33 µM [falling, partial curve]

Structure (SMILES): CCCCN1CCC(CNC(=O)c2c3n(c4ccccc24)CCCO3)CC1
- z-score [1]: -1.33
- z-score [2]: 0.54
- AC50 [3]: 26.4 µM [falling, single point]
- z-score [4]: -0.905
- AC50 [5]: 8.33 µM [falling, full curve]

Structure (SMILES): C[C@@]1(c2cc(-c3cncnc3)c(F)cc2F)CCSC(N)=N1
- z-score [1]: -0.622
- z-score [2]: 0.0917
- AC50 [3]: 3.72 µM [falling, full curve]
- z-score [4]: 0.628
- AC50 [5]: 23.5 µM [falling, single point]

Structure (SMILES): CCC(=C(CC)c1ccc(O)cc1)c1ccc(O)cc1
- z-score [1]: 0.786
- z-score [2]: 0.265
- AC50 [3]: 14.8 µM [falling, partial curve]
- z-score [4]: -0.368
- AC50 [5]: 29.6 µM [falling, single point]
